Laboratory results: PMC6901440
Results are given in words; binding and its absence hold for the method and conditions named. In cells and extracts the contact can be indirect. Binding can be weak; no strength is given.

By UniProt entry, the sequences of proteins in these tests, tags left out. Where a name states a change or a piece, a line headed by the entry shows the natural chain unless it says otherwise.
UniProt Q8NB16: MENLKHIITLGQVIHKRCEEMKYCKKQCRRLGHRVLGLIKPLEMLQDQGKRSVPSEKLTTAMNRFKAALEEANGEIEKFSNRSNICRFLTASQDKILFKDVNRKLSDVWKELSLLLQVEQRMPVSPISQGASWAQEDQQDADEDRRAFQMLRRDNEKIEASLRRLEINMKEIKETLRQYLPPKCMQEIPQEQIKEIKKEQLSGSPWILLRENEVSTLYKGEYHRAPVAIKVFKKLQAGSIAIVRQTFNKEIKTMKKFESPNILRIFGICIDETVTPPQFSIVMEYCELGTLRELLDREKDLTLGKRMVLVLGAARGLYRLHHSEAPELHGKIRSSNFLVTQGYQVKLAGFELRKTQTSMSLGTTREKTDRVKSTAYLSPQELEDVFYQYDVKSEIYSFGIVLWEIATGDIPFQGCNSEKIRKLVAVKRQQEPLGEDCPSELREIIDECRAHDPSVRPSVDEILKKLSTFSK
UniProt P10415: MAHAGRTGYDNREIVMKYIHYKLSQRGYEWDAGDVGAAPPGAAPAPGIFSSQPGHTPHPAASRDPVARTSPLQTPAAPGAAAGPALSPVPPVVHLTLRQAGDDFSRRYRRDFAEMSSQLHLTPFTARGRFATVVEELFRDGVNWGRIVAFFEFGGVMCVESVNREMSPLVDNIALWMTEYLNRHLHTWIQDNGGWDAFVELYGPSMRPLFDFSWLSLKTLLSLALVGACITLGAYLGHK

Molecular target: Flag-MLKL T357D/S358E phosphorylation mimic (human) (UniProt Q8NB16)
Test: co-IP; HEK-293T cells transfected with Flag-tagged GSDMD or MLKL constructs and Bcl-2 or Bcl-2 G145A (MLKL also with RIP3); anti-Flag agarose beads; Bcl-2 detected by blot; washed eight times with lysis buffer

- binding: binds
Substance: Bcl-2 (transfected, HEK-293T) (from UniProt P10415 1-239)
